Results as given in patent publication US20120252718.
For at least one entry, the source does not settle the construct or the ends of the probe. For some assays here: Where cells or extracts were used, other partners may take part.

Chains of the proteins cited; added tags and fusions are not shown. Residues count along the entry.
UniProt P99999, 2-105: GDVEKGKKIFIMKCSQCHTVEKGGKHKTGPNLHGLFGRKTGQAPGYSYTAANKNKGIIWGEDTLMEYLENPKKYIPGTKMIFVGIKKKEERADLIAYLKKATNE

Tests used:
[1] = biological target: cytochrome c (endogenous) (UniProt P99999); assay: pull-down; conditions: protein in cells, protein details: HeLa cells, formaldehyde cross-linked
[2] = test system: cytochrome c (recombinant, EMSA); assay: EMSA; conditions: 0.5-12.5 uM protein, 20 mM KCl, 2.5 mM MgCl2, 30 C, purified recombinant protein, label: 32P (EMSA)

## AAGGGCUUAGCUUAAUUAAAGUGGCUGAUUUGCGUUCAGUUGAUGCAGAGUGGGGUUUUGCAGUCCUUA [mitochondrial tRNAAla]
[1]
  binding result: binds

## AGUAAGGUCAGCUAAAUAAGCUAUCGGGCCCAUACCCCGAAAAUGUUGGUUAUACCCUUCCCGUACUA [mitochondrial tRNAMet]
[1]
  binding result: binds

## GACCUCGUGGCGCAACGGUAGCGCGUCUGACUCCAGAUCAGAAGGUUGCGUGUUCAAAUCACGUCGGGGUCA [cytosolic tRNATrp]
[1]; lesser extent than mitochondrial tRNAs, printed probe identical to U1 probe
  binding result: binds

## GGUUCCAUGGUGUAAUGGUAAGCACUCUGGACUCUGAAUCCAGCCAUCUGAGUUCGAGUCUCUGUGGAACCU [cytosolic tRNAGln(CTG)]
[2]
  binding result: binds
[1]; lesser extent than mitochondrial tRNAs, label: 32P (EMSA)
  binding result: binds

## GUUUAUGUAGCUUACCUCCUCAAAGCAAUACACUGAAAAUGUUUAGACGGGCUCACAUCACCCCAUAAACA [mitochondrial tRNAPhe]
[2]; salmon sperm DNA, 0.5 M urea
  binding result: binds
[1]; label: 32P (EMSA)
  binding result: binds

## UCCUUGUUACUAUAGUGGUGAGUAUCUCUGCCUGUCAUGCGUGAGAGAGGGGGUCGAUUCCCCGACGGGGAG [cytosolic tRNAAsp]
[1]; lesser extent than mitochondrial tRNAs
  binding result: binds
